From patent publication US9045527B2, “Small molecule conjugates with dimetal species for protein inhibition” (WILLIAM MARSH RICE UNIVERSITY, priority 2012, dated 2015)
At least one structure is not confirmed: it was looked up by name or label, or the drawing left a doubt.

Molecular target: T1, CAL PDZ domain (CALP) (Homo sapiens, UniProt Q9HD26)
T1 construct: Expression and purification of the WT and mutant CAL PDZ domains were performed according to commonly described and known methods; made in house
Test: Fluorescence anisotropy inhibition binding assay (displacement of fluorescein-labeled iCAL36 reporter)
Settings: wild-type CALP, n=3; read-out: Ki (inhibitor equilibrium dissociation constant)

CC(=O)N[C@@H](CCC(=O)O)C(=O)N[C@H](C(=O)N[C@@H](CCC(N)=O)C(=O)N[C@@H](CO)C(=O)N[C@H](C(=O)N[C@@H](CCCNC(=N)N)C(=O)N[C@@H](CC(C)C)C(=O)O)[C@@H](C)O)C(C)C [E^RhVQSTRL]
Ki: 560 nM
